Results deposited as PubChem BioAssay AID504791 (Drosophila RNAi Screening Center, 2011).

Screen: 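Genes whose knock-down strengthens or weakens small-RNA reporter silencing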 (primary screen)
Cell system: Drosophila S2-derived reporter cells
Knock-down reagent: long dsRNA against Drosophila genes, about 150-250 ng dsRNA per well (siRNA assay); about 80-120 ng (miRNA assay)
Duration: about 5 days (siRNA assay); about 4 days (miRNA assay)
Challenge: copper sulfate induction of reporters: 25 µM (siRNA assay); 200 mM stated (miRNA assay), 1-2 days before reading
Read-out: 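Dual luciferase assay: Renilla to firefly signal ratio in each well, scaled to the mean ratio of its plate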
Hit rule: 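a well was a first-pass pick when its plate-scaled ratio rose above 1.5 (siRNA assay) or 1.6 (miRNA assay), or dropped below 0.6; a gene counted only if two separate dsRNAs agreed on retest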
The screen tested about 23,000 reagents; shown is a random part of those with a known target gene and a result. Over the whole deposit, 199 (0.86%) are marked active. 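Plate-scaled ratios behind the calls are not deposited; printed light signals are raw; many rows marked increased or decreased are still called inactive.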 The record does not give: the direction of the score.

The first 2 entries, ahead of the listing:
gene knocked down	amplicon	stable siRNA reporter change	miRNA reporter change	stable assay Renilla, run 1 (luminescence)	stable assay firefly, run 1 (luminescence)	call
Obp57c (Odorant-binding protein 57c)	DRSC06384			6211	3.55e5	inactive
BBS1 (Bardet-Biedl syndrome 1)	DRSC10196			4063	3.63e5	inactive

Results, from the start:
gene knocked down	amplicon	stable siRNA reporter change	miRNA reporter change	stable assay Renilla, run 1 (luminescence)	stable assay firefly, run 1 (luminescence)	call
Obp57c (Odorant-binding protein 57c)	DRSC06384			6211	3.55e5	inactive
BBS1 (Bardet-Biedl syndrome 1)	DRSC10196			4063	3.63e5	inactive
CG14823	DRSC10194			8546	4.13e5	inactive
NANS (N-acetylneuraminic acid synthase)	DRSC15743			6227	3.09e5	inactive
Cyp12c1 (Cytochrome P450 12c1)	DRSC11125			9735	5.71e5	inactive
jing	DRSC04923			6195	3.71e5	inactive
jing	DRSC04927	reporter ratio raised past the hit cutoff		6496	1.11e5	inactive
jing	DRSC05000			12419	1.40e6	inactive
sa (spermatocyte arrest)	DRSC11649			5699	4.53e5	inactive
Skp2 (S-phase kinase-associated protein 2)	DRSC12329	reporter ratio lowered past the hit cutoff		6894	5.16e5	active
Skp2 (S-phase kinase-associated protein 2)	DRSC28203		reporter ratio lowered past the hit cutoff			active
Pvf1 (PDGF- and VEGF-related factor 1)	DRSC20024			6950	3.41e5	inactive
Lfg (Lifeguard)	DRSC06853		reporter ratio raised past the hit cutoff	5795	3.00e5	active
Dpm1 (Dolichyl-phosphate mannosyltransferase subunit 1)	DRSC02018			7376	3.97e5	inactive
Pp2B-14D (Protein phosphatase 2B at 14D)	DRSC20270			4755	4.17e5	inactive
Pp2B-14D (Protein phosphatase 2B at 14D)	DRSC23315			5079	3.73e5	inactive
CG10077	DRSC09691			8828	5.72e5	inactive
atos (atossa)	DRSC07318			5647	2.91e5	inactive
CG2224	DRSC15429			6771	3.87e5	inactive
CG31872	DRSC02568			6610	4.66e5	inactive
CG31872	DRSC02572			6135	3.75e5	inactive
nAChRalpha1 (nicotinic Acetylcholine Receptor alpha1)	DRSC13664			4912	2.98e5	inactive
nAChRalpha1 (nicotinic Acetylcholine Receptor alpha1)	DRSC13670			4708	2.24e5	inactive
nAChRalpha1 (nicotinic Acetylcholine Receptor alpha1)	DRSC13672			6158	5.06e5	inactive
nAChRalpha1 (nicotinic Acetylcholine Receptor alpha1)	DRSC17008			7871	4.66e5	inactive
CG1946	DRSC06804			6342	3.65e5	inactive
CG17570	DRSC01770			6126	3.82e5	inactive
CG17570	DRSC03754			6830	4.05e5	inactive
egg (eggless)	DRSC04119			20374	2.19e6	inactive
egg (eggless)	DRSC22534			6392	7.45e5	inactive
spri (sprint)	DRSC17846			4228	4.00e5	inactive
spri (sprint)	DRSC17984			6362	4.97e5	inactive
spri (sprint)	DRSC17985			6448	4.48e5	inactive
spri (sprint)	DRSC17986			6403	4.53e5	inactive
spri (sprint)	DRSC17988			6527	4.87e5	inactive
spri (sprint)	DRSC17989			5308	4.32e5	inactive
spri (sprint)	DRSC22927			4744	3.83e5	inactive
